Measured values taken from the supplement of paper PMC4604168 (melanoma cell lines).
The other results are listed elsewhere or left out. Many values rest on one well or one pass, so single values are uncertain.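 Imaging used 1,536-well plates; nuclei positive for cleaved PARP by antibody were divided by total DNA-stained nuclei to yield the apoptosis fraction. Doses for screening kept most cells viable, and cell lines differ markedly in resting and induced cleaved-PARP levels.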

test system: SkMel28; assay: cleaved PARP positive nuclei fraction relative to DMSO control; melanoma cells; higher = more apoptosis; conditions: library dose: low library concentration; 72 h

| SMILES | cleaved PARP positive nuclei fraction [%] |
| --- | --- |
| C[As](C)SC[C@H](NC(=O)CC[C@H](N)C(=O)O)C(=O)NCC(=O)O [Darinaparsin] + O=C(Nc1ccccc1)c1cc([N+](=O)[O-])ccc1Cl [GW9662] (first compound 0.4 µM, partner dose 2 µM) | 121 |
| C[C@]12O[C@H](C[C@]1(O)CO)n1c3ccccc3c3c4c(c5c6ccccc6n2c5c31)CNC4=O [Lestaurtinib] + O=C(O)c1ccc(-c2c[nH]c3ncc(-c4ccccc4)cc23)cc1C1CCCC1 [GSK650394] (first compound 0.004 µM, partner dose 0.16 µM) | 184 |
| C[C@]12O[C@H](C[C@]1(O)CO)n1c3ccccc3c3c4c(c5c6ccccc6n2c5c31)CNC4=O [Lestaurtinib] + Oc1cc(-c2nc(-c3ccccc3)[nH]c2-c2ccncc2)ccc1Cl [L779450] (first compound 0.004 µM, partner dose 0.2 µM) | 186 |
| COc1ccc2c(c1)CCC1C2CCC2(C)C(NCCCCCCN3C(=O)C=CC3=O)CCC12 (centres undefined) + C/C(O)=C(\C#N)C(=O)Nc1cc(Br)ccc1Br [LFM-A13] (first compound 0.4 µM, partner dose 2 µM) | 113 |
| Cc1cc(SCc2sc(-c3ccc(C(F)(F)F)c(F)c3)nc2C)ccc1OCC(=O)O + C/C(O)=C(\C#N)C(=O)Nc1cc(Br)ccc1Br [LFM-A13] (first compound 2 µM, partner dose 2 µM) | 49.3 |
| COC(=O)c1sccc1S(=O)(=O)Nc1ccc(Nc2ccccc2)cc1OC + C/C(O)=C(\C#N)C(=O)Nc1cc(Br)ccc1Br [LFM-A13] (first compound 1 µM, partner dose 2 µM) | 135 |
| O=C(O)c1ccc(-c2c[nH]c3ncc(-c4ccccc4)cc23)cc1C1CCCC1 + O=C(Oc1ccc([N+](=O)[O-])cc1)N1CCC(C(O)(c2ccc3c(c2)OCO3)c2ccc3c(c2)OCO3)CC1 [JZL184] (first compound 0.16 µM, partner dose 1 µM) | 75.9 |
| C[C@@H]1CCN(C(=O)CC#N)C[C@@H]1N(C)c1ncnc2[nH]ccc12 + Cc1cc(SCc2sc(-c3ccc(C(F)(F)F)c(F)c3)nc2C)ccc1OCC(=O)O [GW0742] (first compound 1 µM, partner dose 2 µM) | 71.4 |
| O=C(Nc1cccc(Cl)c1)Nc1ncc(CCNc2ncnc3ccsc23)s1 + Cc1cc(SCc2sc(-c3ccc(C(F)(F)F)c(F)c3)nc2C)ccc1OCC(=O)O [GW0742] (first compound 0.0008 µM, partner dose 2 µM) | 118 |
| C[C@]12O[C@H](C[C@]1(O)CO)n1c3ccccc3c3c4c(c5c6ccccc6n2c5c31)CNC4=O [Lestaurtinib] + COc1cc2ncnc(Nc3ccc(Oc4ccccc4)cc3)c2cc1OC [SrcI1] (first compound 0.004 µM, partner dose 2 µM) | 74.3 |
| C[As](C)SC[C@H](NC(=O)CC[C@H](N)C(=O)O)C(=O)NCC(=O)O [Darinaparsin] + COc1ccc(COc2ccc(Cc3cnc(N)nc3N)cc2OC)cc1 [GW2580] (first compound 0.4 µM, partner dose 1 µM) | 60.4 |
| C[C@]12O[C@H](C[C@]1(O)CO)n1c3ccccc3c3c4c(c5c6ccccc6n2c5c31)CNC4=O [Lestaurtinib] + COc1ccc(-c2ccc3c(N4CCOCC4)nc(N4C[C@@H](C)O[C@@H](C)C4)nc3n2)cc1CO [KU0063794] (first compound 0.004 µM, partner dose 0.02 µM) | 112 |
| O=S(=O)(c1ccccc1)N(CC(F)(F)F)c1ccc(C(O)(C(F)(F)F)C(F)(F)F)cc1 + Cc1cc(SCc2sc(-c3ccc(C(F)(F)F)c(F)c3)nc2C)ccc1OCC(=O)O [GW0742] (first compound 1.4 µM, partner dose 2 µM) | 170 |
| COc1ccc(COc2ccc(Cc3cnc(N)nc3N)cc2OC)cc1 + Cc1cc(SCc2sc(-c3ccc(C(F)(F)F)c(F)c3)nc2C)ccc1OCC(=O)O [GW0742] (first compound 1 µM, partner dose 2 µM) | 120 |
| C[As](C)SC[C@H](NC(=O)CC[C@H](N)C(=O)O)C(=O)NCC(=O)O [Darinaparsin] + CCc1ccc(CCOc2ccc(CC3SC(=O)NC3=O)cc2)nc1 [pioglitazone] (first compound 0.4 µM, partner dose 2 µM) | 202 |
| O=C(Oc1ccc([N+](=O)[O-])cc1)N1CCC(C(O)(c2ccc3c(c2)OCO3)c2ccc3c(c2)OCO3)CC1 + CC(C)CCN1c2nc(Nc3cc(F)c(O)c(F)c3)ncc2N(C)C(=O)C1C [BID1870] (first compound 1 µM, partner dose 0.2 µM) | 189 |
| CO[C@H]1C[C@@H]2CC[C@@H](C)[C@@](O)(O2)C(=O)C(=O)N2CCCC[C@H]2C(=O)O[C@H]([C@H](C)C[C@@H]2CC[C@@H](OCCO)[C@H](OC)C2)CC(=O)[C@H](C)/C=C(\C)[C@@H](O)[C@@H](OC)C(=O)[C@H](C)C[C@H](C)/C=C/C=C/C=C/1C [everolimus] + Cc1cc(SCc2sc(-c3ccc(C(F)(F)F)c(F)c3)nc2C)ccc1OCC(=O)O [GW0742] (first compound 0.02 µM, partner dose 2 µM) | 87.4 |
| COc1cc(Nc2ncc(F)c(Nc3ccc4c(n3)NC(=O)C(C)(C)O4)n2)cc(OC)c1OC [Tamatinib] + O=C(Oc1ccc([N+](=O)[O-])cc1)N1CCC(C(O)(c2ccc3c(c2)OCO3)c2ccc3c(c2)OCO3)CC1 [JZL184] (first compound 0.4 µM, partner dose 1 µM) | 171 |
| COc1cc2ncnc(Nc3ccc(Oc4ccccc4)cc3)c2cc1OC + O=C(Oc1ccc([N+](=O)[O-])cc1)N1CCC(C(O)(c2ccc3c(c2)OCO3)c2ccc3c(c2)OCO3)CC1 [JZL184] (first compound 2 µM, partner dose 1 µM) | 142 |
| C/C(O)=C(\C#N)C(=O)Nc1cc(Br)ccc1Br + O=C(Oc1ccc([N+](=O)[O-])cc1)N1CCC(C(O)(c2ccc3c(c2)OCO3)c2ccc3c(c2)OCO3)CC1 [JZL184] (first compound 2 µM, partner dose 1 µM) | 178 |
| C/C(O)=C(\C#N)C(=O)Nc1cc(Br)ccc1Br + CC(C)CCN1c2nc(Nc3cc(F)c(O)c(F)c3)ncc2N(C)C(=O)C1C [BID1870] (first compound 2 µM, partner dose 0.2 µM) | 74.7 |
| N#Cc1c(O)c2c(-c3ccc(-c4ccccc4O)cc3)csc2[nH]c1=O + C/C(O)=C(\C#N)C(=O)Nc1cc(Br)ccc1Br [LFM-A13] (first compound 2 µM, partner dose 2 µM) | 102 |
| C[C@]12O[C@H](C[C@]1(O)CO)n1c3ccccc3c3c4c(c5c6ccccc6n2c5c31)CNC4=O [Lestaurtinib] + C[C@@H]1CCN(C(=O)CC#N)C[C@@H]1N(C)c1ncnc2[nH]ccc12 [CP690550] (first compound 0.004 µM, partner dose 1 µM) | 108 |
| Cc1ccc(NC(=O)c2cccc(N(C)C)c2)cc1NC(=O)c1ccc(O)cc1 + C/C(O)=C(\C#N)C(=O)Nc1cc(Br)ccc1Br [LFM-A13] (first compound 2 µM, partner dose 2 µM) | 86.3 |

Some values from the results shown.
cleaved PARP positive nuclei fraction [%], CO[C@H]1C[C@@H]2CC[C@@H](C)[C@@](O)(O2)C(=O)C(=O)N2CCCC[C@H]2C(=O)O[C@H]([C@H](C)C[C@@H]2CC[C@@H](OCCO)[C@H](OC)C2)CC(=O)[C@H](C)/C=C(\C)[C@@H](O)[C@@H](OC)C(=O)[C@H](C)C[C@H](C)/C=C/C=C/C=C/1C [everolimus] + Cc1cc(SCc2sc(-c3ccc(C(F)(F)F)c(F)c3)nc2C)ccc1OCC(=O)O [GW0742] (first compound 0.02 µM, partner dose 2 µM) reads 87.4
cleaved PARP positive nuclei fraction [%], COc1cc(Nc2ncc(F)c(Nc3ccc4c(n3)NC(=O)C(C)(C)O4)n2)cc(OC)c1OC [Tamatinib] + O=C(Oc1ccc([N+](=O)[O-])cc1)N1CCC(C(O)(c2ccc3c(c2)OCO3)c2ccc3c(c2)OCO3)CC1 [JZL184] (first compound 0.4 µM, partner dose 1 µM) reads 171
